No constants are given. Whether binding was seen depends on the method and setting. Some entries that bind do so weakly or less than the wild type.
Biological target: T1, LexA protein, P0A7C2
T1 chain: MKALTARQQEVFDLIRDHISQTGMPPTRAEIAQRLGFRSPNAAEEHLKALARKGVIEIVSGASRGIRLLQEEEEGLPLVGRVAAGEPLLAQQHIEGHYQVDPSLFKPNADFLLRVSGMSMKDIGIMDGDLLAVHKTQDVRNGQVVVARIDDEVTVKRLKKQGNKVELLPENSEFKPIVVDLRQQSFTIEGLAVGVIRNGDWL
Test: cross-linking; glutaraldehyde cross-linking of a single protein, SDS-PAGE; LexA as dimerisation-positive control; both purified
Conditions: remark: other sources report otherwise

B1: LexA protein, P0A7C2 1-202 (protein)
chain: T1 chain
  binding: binds

Reference: paper PMC3917654
